The values below come from the supplement of paper PMC12819154, “High-throughput peptide-centric local stability assay extends protein–ligand identification to membrane proteins, tissues and bacteria” (Nature Structural & Molecular Biology, 2025).

Amino acid sequences for entries named in this document (tags omitted). A change or cut given only in a name is not applied to a line headed by its entry.
UniProt O08736: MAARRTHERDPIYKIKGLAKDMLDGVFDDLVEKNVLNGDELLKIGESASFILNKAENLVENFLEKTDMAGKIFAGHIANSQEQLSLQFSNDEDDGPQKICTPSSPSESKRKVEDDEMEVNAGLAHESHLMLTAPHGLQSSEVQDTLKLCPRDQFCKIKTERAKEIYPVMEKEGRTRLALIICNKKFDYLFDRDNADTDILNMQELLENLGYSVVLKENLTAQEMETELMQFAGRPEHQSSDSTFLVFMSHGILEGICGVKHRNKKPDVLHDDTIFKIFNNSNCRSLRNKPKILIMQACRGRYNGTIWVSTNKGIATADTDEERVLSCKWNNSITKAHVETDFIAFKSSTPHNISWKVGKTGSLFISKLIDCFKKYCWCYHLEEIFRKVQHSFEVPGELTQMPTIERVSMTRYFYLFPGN
UniProt O35423: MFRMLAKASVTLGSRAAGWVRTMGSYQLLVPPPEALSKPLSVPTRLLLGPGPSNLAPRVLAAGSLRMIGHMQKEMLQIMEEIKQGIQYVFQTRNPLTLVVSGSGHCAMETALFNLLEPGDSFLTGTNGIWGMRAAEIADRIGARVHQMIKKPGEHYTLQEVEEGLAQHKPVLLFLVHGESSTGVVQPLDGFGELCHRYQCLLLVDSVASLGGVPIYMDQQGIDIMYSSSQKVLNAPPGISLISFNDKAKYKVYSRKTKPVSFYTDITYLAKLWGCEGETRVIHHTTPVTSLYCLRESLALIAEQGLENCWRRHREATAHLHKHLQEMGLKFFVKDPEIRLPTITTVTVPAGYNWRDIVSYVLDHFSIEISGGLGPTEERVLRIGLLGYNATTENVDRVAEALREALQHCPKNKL
UniProt E9Q784, whole entry: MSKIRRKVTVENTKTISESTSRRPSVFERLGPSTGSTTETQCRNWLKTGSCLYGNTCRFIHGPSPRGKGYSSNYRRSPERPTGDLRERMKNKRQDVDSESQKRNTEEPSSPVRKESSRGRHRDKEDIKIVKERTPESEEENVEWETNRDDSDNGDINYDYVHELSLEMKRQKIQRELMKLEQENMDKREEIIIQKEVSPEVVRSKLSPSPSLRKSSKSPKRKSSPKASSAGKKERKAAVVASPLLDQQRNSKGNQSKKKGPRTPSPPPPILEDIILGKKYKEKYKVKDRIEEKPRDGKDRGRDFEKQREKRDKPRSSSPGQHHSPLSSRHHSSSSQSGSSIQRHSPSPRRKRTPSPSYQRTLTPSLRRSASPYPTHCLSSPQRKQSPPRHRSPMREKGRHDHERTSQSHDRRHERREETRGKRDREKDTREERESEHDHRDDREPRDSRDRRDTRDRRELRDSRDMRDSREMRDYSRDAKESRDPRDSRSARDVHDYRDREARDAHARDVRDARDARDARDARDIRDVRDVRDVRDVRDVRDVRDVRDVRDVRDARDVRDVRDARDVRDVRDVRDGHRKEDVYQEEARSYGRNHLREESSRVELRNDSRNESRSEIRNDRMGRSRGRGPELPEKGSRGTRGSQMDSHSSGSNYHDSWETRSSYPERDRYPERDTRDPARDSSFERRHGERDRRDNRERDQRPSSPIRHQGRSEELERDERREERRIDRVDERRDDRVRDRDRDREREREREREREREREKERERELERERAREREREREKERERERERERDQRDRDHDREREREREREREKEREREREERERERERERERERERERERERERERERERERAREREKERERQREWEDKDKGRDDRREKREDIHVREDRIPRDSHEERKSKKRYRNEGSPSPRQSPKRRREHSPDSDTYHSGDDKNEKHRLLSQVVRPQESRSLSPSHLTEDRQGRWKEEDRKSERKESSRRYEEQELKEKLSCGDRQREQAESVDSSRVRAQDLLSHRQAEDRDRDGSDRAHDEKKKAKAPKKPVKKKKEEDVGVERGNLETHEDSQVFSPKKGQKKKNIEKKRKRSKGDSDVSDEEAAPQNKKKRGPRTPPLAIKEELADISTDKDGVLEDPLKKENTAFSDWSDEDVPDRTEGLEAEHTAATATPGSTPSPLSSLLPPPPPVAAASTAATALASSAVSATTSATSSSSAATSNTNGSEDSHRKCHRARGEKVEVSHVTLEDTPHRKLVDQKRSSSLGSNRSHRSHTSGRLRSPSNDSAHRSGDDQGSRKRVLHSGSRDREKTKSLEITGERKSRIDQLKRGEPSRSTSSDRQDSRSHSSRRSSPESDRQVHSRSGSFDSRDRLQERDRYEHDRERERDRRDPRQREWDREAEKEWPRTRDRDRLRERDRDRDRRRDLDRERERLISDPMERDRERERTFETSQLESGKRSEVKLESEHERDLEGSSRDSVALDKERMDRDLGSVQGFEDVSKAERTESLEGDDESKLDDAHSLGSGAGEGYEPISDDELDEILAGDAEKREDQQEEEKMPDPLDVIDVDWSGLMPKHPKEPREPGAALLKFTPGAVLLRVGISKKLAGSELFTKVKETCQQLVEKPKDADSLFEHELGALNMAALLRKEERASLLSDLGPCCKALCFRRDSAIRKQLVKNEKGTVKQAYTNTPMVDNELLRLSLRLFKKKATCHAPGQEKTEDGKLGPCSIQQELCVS
UniProt F2Z461: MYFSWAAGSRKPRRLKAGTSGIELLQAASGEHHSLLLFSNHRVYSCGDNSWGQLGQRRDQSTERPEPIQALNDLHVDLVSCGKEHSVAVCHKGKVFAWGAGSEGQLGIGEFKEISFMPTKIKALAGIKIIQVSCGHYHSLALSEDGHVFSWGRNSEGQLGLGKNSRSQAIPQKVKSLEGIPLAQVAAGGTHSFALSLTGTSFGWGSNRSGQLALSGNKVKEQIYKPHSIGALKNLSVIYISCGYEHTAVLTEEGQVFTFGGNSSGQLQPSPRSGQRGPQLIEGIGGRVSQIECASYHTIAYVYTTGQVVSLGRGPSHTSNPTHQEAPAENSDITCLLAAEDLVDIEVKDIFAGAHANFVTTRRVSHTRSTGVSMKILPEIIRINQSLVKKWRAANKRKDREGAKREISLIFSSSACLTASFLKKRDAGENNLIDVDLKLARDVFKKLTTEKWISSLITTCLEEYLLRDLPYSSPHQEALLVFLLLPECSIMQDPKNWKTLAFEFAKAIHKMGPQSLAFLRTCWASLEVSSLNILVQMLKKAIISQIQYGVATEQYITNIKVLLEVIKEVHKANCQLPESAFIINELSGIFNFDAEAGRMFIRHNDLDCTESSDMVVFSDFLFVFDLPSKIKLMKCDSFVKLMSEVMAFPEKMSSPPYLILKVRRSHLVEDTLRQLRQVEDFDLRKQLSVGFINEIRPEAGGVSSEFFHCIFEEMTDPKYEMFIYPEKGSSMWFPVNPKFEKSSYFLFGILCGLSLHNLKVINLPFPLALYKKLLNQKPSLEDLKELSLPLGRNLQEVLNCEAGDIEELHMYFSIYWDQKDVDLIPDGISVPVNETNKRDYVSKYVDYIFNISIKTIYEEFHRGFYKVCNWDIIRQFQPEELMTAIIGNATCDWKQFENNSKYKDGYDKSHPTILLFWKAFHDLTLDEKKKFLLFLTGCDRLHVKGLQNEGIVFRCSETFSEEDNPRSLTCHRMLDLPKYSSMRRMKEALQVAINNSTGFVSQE
UniProt O09111: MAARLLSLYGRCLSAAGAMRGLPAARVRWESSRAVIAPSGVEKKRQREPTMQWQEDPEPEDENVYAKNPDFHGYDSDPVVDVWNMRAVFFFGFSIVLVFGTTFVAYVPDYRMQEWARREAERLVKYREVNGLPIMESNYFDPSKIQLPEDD
UniProt O35075, whole entry: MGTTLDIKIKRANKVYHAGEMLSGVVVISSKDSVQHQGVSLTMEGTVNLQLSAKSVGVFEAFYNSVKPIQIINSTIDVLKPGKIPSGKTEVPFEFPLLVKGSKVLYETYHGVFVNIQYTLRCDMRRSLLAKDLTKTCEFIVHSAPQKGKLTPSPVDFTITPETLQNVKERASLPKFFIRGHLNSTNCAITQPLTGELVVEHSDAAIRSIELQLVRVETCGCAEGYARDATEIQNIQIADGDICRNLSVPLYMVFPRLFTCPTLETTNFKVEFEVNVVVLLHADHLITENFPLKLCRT
UniProt O35309: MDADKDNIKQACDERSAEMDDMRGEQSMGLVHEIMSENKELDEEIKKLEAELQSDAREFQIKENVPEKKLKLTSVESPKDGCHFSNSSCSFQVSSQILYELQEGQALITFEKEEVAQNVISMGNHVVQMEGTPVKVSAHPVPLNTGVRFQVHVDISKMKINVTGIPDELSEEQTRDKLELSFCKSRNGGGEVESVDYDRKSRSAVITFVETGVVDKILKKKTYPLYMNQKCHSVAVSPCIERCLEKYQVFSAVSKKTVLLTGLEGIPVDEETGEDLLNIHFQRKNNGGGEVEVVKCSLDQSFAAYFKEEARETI
UniProt O35216: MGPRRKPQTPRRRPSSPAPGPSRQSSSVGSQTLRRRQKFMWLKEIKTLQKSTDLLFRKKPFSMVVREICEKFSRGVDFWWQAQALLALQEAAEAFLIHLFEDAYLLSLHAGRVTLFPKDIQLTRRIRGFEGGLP
UniProt E9PYK3: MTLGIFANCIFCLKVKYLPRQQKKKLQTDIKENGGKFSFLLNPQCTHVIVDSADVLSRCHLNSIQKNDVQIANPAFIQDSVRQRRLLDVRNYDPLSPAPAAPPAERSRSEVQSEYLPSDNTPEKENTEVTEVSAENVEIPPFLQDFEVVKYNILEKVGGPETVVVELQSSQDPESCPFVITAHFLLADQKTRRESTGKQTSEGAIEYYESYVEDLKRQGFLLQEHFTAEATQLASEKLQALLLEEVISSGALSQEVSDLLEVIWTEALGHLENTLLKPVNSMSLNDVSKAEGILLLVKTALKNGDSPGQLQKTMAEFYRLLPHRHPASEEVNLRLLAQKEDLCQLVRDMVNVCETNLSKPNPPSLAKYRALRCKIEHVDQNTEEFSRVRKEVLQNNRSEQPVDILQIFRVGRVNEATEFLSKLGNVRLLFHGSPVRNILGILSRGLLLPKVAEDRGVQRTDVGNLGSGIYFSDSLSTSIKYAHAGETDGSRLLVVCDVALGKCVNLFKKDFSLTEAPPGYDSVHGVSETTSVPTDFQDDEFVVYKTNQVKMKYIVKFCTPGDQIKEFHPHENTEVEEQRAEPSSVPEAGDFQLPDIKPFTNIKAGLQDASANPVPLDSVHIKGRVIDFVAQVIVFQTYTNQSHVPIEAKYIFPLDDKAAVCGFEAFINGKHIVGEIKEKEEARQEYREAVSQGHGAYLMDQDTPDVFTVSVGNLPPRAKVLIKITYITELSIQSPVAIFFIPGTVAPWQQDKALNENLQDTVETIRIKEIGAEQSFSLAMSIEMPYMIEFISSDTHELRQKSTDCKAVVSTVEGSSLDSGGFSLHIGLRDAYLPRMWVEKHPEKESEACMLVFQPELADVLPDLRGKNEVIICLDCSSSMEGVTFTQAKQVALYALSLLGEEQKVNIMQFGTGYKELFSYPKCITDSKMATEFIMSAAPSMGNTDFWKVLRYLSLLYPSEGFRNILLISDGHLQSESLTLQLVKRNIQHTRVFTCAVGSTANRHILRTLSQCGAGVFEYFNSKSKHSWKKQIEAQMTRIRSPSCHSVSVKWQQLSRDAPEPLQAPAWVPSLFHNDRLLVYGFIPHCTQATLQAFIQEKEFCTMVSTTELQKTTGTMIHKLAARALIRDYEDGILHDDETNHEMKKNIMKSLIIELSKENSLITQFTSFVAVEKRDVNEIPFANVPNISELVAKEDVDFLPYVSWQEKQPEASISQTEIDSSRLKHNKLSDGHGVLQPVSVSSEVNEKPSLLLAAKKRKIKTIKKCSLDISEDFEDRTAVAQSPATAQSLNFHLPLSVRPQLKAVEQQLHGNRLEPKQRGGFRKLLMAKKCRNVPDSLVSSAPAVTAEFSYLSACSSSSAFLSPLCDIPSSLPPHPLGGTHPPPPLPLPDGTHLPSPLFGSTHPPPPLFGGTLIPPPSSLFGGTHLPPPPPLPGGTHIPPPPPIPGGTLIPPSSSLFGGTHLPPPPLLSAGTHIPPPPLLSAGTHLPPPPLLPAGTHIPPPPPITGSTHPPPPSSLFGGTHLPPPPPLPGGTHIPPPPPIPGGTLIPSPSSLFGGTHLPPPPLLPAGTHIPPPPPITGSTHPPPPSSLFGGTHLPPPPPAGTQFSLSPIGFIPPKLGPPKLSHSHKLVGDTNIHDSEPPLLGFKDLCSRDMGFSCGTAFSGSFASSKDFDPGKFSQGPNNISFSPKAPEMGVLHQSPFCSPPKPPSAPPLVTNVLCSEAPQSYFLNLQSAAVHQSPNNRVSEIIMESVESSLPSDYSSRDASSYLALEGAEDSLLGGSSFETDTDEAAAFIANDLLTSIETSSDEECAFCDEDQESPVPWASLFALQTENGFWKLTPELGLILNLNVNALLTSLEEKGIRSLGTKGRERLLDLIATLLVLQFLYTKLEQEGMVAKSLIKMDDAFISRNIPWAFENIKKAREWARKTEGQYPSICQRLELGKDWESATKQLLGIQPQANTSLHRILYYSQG

Some of the results follow. Most values lie at the level of the controls, where differences are scatter.

Compound in this assay: CN[C@@H]1C[C@H]2O[C@@](C)([C@@H]1OC)n1c3ccccc3c3c4c(c5c6ccccc6n2c5c31)C(=O)NC4 [staurosporine]
The assay can be described thus: log2 fold change of tryptic peptide abundance, ligand vs vehicle (limited proteolysis) (log2 ratio); higher = more trypsin-susceptible (destabilized). The following applies: ligand concentration: 20 uM; sample: mouse liver crude lysate; replicate design: treated separately.
In the case of “UniProt O08736 (peptide sequence: AHVETDFIAFKSSTPHNISWK, peptide start residue: 336)”, the log2 fold change turned out to be 0.382. The value for “UniProt G5E8V9 (peptide sequence: QLGDAFADLSLK, peptide start residue: 195)” was -0.207. As to “UniProt G3X9Z4 (peptide sequence: IDGPPTPGSLR, peptide start residue: 780)”, the log2 fold change stood at 0.155. The value for “UniProt O08992 (peptide sequence: SLMDHTIPEV, peptide start residue: 290)” was 0.0392; that for “UniProt O08756 (peptide sequence: EIQAALTLAK, peptide start residue: 70)” was 0.169; that for “UniProt E9PVA8 (peptide sequence: VLVAVLLSR, peptide start residue: 568)” was 0.266. The value for “UniProt O35423 (peptide sequence: EALQHCPKNKL, peptide start residue: 404)” was -0.48; that for “UniProt O35344 (peptide sequence: SGILPILVK, peptide start residue: 113)” was -0.144.

In the case of “UniProt B2RXS4 (peptide sequence: VWHLVRPTDEVDEGKSK, peptide start residue: 1592)”, the log2 fold change is -0.397. To “UniProt E9Q784 (peptide sequence: ASLLSDLGPCCK, peptide start residue: 1643)” belongs 0.243. As to “UniProt F2Z461 (peptide sequence: ELSLPLGR, peptide start residue: 785)”, the log2 fold change was -0.402. The value for “UniProt O08863 (peptide sequence: AALEMGFSR, peptide start residue: 392)” was -0.0856; that for “UniProt O09131 (peptide sequence: EALENEFKK, peptide start residue: 144)” was 0.655. The value for “UniProt O09111 (peptide sequence: AVIAPSGVEK, peptide start residue: 34)” was -0.0645; that for “UniProt E9Q309 (peptide sequence: KVATAPPAPAYK, peptide start residue: 323)” was 0.816. For “UniProt O35075 (peptide sequence: TCEFIVHSAPQK, peptide start residue: 136)”, the log2 fold change was -0.155.

Regarding “UniProt O35309 (peptide sequence: CHSVAVSPCIERCLEK, peptide start residue: 231)”, the log2 fold change was -0.564.

In the case of “UniProt E9Q4N7 (peptide sequence: SSTVSVHDPFSDVSDSAYPKR, peptide start residue: 1288)”, the log2 fold change is -0.269. To “UniProt G3X9K3 (peptide sequence: IWEVIGDHFNK, peptide start residue: 1184)” belongs 0.294; to “UniProt D3Z6S9 (peptide sequence: AKEKALQK, peptide start residue: 389)”, 0.0529; to “UniProt O08530 (peptide sequence: RPIIPGMEFSR, peptide start residue: 342)”, -0.144. For “UniProt E9PXF8 (peptide sequence: SFEGTLYKR, peptide start residue: 1768)”, the log2 fold change was 0.601. The value for “UniProt F8VPK0 (peptide sequence: LVALYHQEK, peptide start residue: 122)” was 0.222; that for “UniProt O35216 (peptide sequence: QSSSVGSQTLR, peptide start residue: 24)” was -0.0774. To “UniProt D3Z5L6 (peptide sequence: AQNSLGTEEER, peptide start residue: 441)” belongs -0.0312. As for “UniProt O09000 (peptide sequence: KLPCDAPGQGLVYSGEK, peptide start residue: 20)”, the log2 fold change was -0.269. The value for “UniProt E9PYK3 (peptide sequence: LVGDTNIHDSEPPLLGFK, peptide start residue: 1626)” was -0.136; that for “UniProt E9PVB5 (peptide sequence: IHIEENEDRDTGLEQR, peptide start residue: 91)” was -0.106. In the case of “UniProt O35386 (peptide sequence: YGFQGVMDFK, peptide start residue: 312)”, the log2 fold change came to 2.66. The value for “UniProt E9Q3M5 (peptide sequence: WIKFEEK, peptide start residue: 131)” was -0.0424; that for “UniProt K7N6K2 (peptide sequence: IQTGFNQLR, peptide start residue: 182)” was -0.233.
